From patent US20110129478A1
No constants are given. Whether binding was seen depends on the method and setting. Some entries that bind do so weakly or less than the wild type.

Amino acid sequences for entries named in this document (tags omitted). A change or cut given only in a name is not applied to a line headed by its entry.
UniProt P15814: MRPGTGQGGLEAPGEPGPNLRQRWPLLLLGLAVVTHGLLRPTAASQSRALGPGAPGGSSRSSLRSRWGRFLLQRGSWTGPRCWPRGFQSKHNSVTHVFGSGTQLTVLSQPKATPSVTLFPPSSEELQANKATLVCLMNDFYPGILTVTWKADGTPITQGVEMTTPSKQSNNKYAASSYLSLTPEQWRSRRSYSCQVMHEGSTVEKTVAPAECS

Molecular target: human CD179b protein (antigen protein expressed from the SRaIgG1Fc vector, human IgG1 Fc fusion) (human) (UniProt P15814)
Experiment: ELISA, plate coated with 1 ug/ml human CD179b protein, hybridoma culture supernatant

binding: binds
B1: anti-CD179b monoclonal antibody #8 (antibody, mouse IgG3, V domains shown)
VH: EVQLQQSGPELVKPGASVKMSCKASGYTFTDYYMKWMKQSHGKSLEWIGDINPNNGGTTYNQKFKGKATLTVDKSSSTAYMQLNSLTSEDSAVYYCARDYGYGYFDYWGQGTTLTVSS
VL: DIQMTQSPASLSVSVGETVTITCRASENIYSNLAWYQQKQGKSPQLLVYAATNLADGVPSRFSGSGSGTQYSLKINSLQSEDFGSYYCQHFWGTWTFGGGTTLEIK
